Tests used:
[1] = Caco-2 permeability assay; assay type: in vitro ADME; conditions: human, Caco-2, pH 7.4
Method: (§1) Caco-2 permeability assay. To assay the permeability of test compounds by Caco-2 cell model, Caco-2 cells were cultured to confluency before being trypsinized and seeded onto filter transwell inserts at a density of 30,000 cells/well in DMEM medium. Cells were cultured in a humidified atmosphere with 5% CO2 at 37° C. After overnight attachment, cell medium was replaced with fresh medium at both apical and basolateral sides every other day. The cell monolayers are ready for the assay 20 days post seeding. […] The dosing solution at 10 μM was obtained by diluting 10 mM stock solution in HBSS medium (pH 7.4, 25 mM HEPES) freshly before the assay. Terfenadine (25 ng/mL) and Tolbutamide (50 ng/mL) were added into dosing solution as internal standards. […] The culture medium from either the basolateral side (plate B) or apical side (plate A) were aspirated and then rinsed with HBSS medium once. Afterwards, the dosing medium was added to either basolateral or apical side. Following the incubation, 100 microliter samples from both sides were harvested at time 0 and time 90 min. Samples were quenched with acetonitrile/methanol (1:1 v/v), centrifuged, and analyzed on a Shimadzu reversed-phase HPLC and Sciex API4500 Q trap instrument.
(§2) Permeability parameters were calculated using the following equations and shown in Table 10: Papp=(Conc.receiver,90 min*Volumereceiver)/(Time*Membrane Area*Conc.donor,0 min) Efflux Ratio=Papp[B to A]/Papp[A to B]

Caco-2 cell monolayers = experiment: Caco-2 permeability assay; assay type: in vitro ADME
Method: as §1, §2

**Q.** For `CC(C)NCC(O)COc1ccc(CC(N)=O)cc1` (stereo not shown) [Atenolol], which Papp A→B at 90 min, 10 μM ([1]; N = 2, 10 μM, 90 min) is on record?
**A.** 0.4 ×10⁻⁶ cm/s

**Q.** And the Papp B→A at 90 min, 10 μM ([1]; N = 2, 10 μM, 90 min)?
**A.** 0.6 ×10⁻⁶ cm/s

**Q.** What about the efflux ratio at 90 min, 10 μM ([1]; Papp[B to A]/Papp[A to B]) of the same compound?
**A.** 1.5

**Q.** And the “Pgp Substrate” value (Caco-2 cell monolayers)?
**A.** No
